Publication doi:10.1101/2025.06.17.660196

Biological target: T1, FLAG-Strep-Med19 (endogenous 3xFLAG/Twin Strep tagged Med19) (rat (endogenous in INS-1)) (UniProt D3ZAP1)
T1 sequence: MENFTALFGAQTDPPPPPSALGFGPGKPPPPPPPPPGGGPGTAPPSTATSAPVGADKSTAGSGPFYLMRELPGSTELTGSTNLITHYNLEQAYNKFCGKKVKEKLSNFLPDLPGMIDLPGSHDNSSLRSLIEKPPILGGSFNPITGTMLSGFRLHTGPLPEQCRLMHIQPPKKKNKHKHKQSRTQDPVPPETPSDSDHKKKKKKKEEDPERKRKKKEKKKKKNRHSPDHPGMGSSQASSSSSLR
Test: co-IP; anti-FLAG (M2 agarose) immunoprecipitates of endogenous FLAG-Strep-Med19 from INS-1 extracts, Med14 WT and Med14 S983A knock-in lines; immunoblot; cells treated with FSK, H-89 or Ex-4 (10 nM) as indicated

Row | Substance | binding
1 | Med12 (rat (endogenous in INS-1)) | binds
2 | Med30 (rat (endogenous in INS-1)) | binds

No constants are given. Whether binding was seen depends on the method and setting. Binding seen in cells or lysates may run through a third protein. Binding calls can cover weak binding; strength is not graded here. Tags and fused reporters may be left off the sequences shown.
